Measurements from patent US8623414B2, “Compositions comprising a lipid and copolymer of styrene and maleic acid” (Malvren Cosmeceutics Limited, priority 2005, dated 2014).
For at least one compound, name, drawing or mass did not settle the structure.

Assay: Example 5 Supplemental: turbidity meter (Nephla) of compositions with active agents over time (Table 12a); on Clarity: key: Clear: categorised as being clear if there was no significant visible opacity to the naked eye; Cloudy: categorised as cloudy if there was significant visible disruption to the passage of light
Format: physicochemical
Conditions: SMA 3000P (hydrolysed) 2.5%, lipid 90H 1%, S LPC 0.01%
Method: The turbidity meter was calibrated prior to use, with two known standards (0 and 40 FNU).
After the final stage of sample preparation (i.e. adjustment of the pH to physiological) samples were course filtered through Whatman 541 filter paper to remove any gross matter which could interfere with turbidity measurement. Immediately after filtration the first turbidity measurement was taken. Mixtures were stored at 4° C. following the initial measurement, and remeasured at later time points.

SMILES	Clarity (active agent 0.25%)	pH on clearing (active agent 0.25%)	Turbidity at pH 7 (FNU) (active agent 0.25%)	Clarity (active agent 0.1%)	pH on clearing (active agent 0.1%)	Turbidity at pH 7 (FNU) (active agent 0.1%)
C[C@@H]1C[C@H]2[C@@H]3CCC4=CC(=O)C=C[C@]4(C)[C@@]3(F)[C@@H](O)C[C@]2(C)[C@@]1(O)C(=O)CO [DEX, Dexamethasone]	Clear	8.82	58.6			
Nc1cc(N2CCCCC2)nc(N)[n+]1[O-] [Minoxidil]				Clear	8.91	10.86
